PubChem BioAssay AID743454, Peter MacCallum Cancer Centre | 2014
Shown is an unselected part of about 18,000 reagents. Over the whole deposit, 450 (2.5%) got an active call. 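Single biological run; no consistent viability z cut-off exists, so the class columns, not z-scores, define the calls.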 Entries without a mark were called inactive.

Screen: 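Knock-downs lowering viability or raising caspase 3/7 activity in vorinostat-treated resistant cells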 (primary screen)
Cells: human HCT116-VR colon cancer cells, selected for vorinostat resistance
Knock-down reagent: siRNA pool against human genes, 40 nM siRNA pool
Duration: vorinostat for 24 h, read-out about 72 h after transfection
Treatment: vorinostat at 2.5 µM final
Read-out: 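Two measures, CellTiter-Fluor viability and luminescent caspase 3/7 activity, each as fold change against same-plate mock wells, mean of duplicates, then screen-wide robust z-score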
Scale: viability robust z-score: higher = more viable cells than screen typical; caspase robust z-score: higher = more caspase 3/7 activity than screen typical
Rule for the call: 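a knock-down is a hit when classed RV1 or RV2 for lowered viability, or CA1 or CA2 for caspase activation; those lethal without drug were dropped; hits were retested singly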

IGFBP6 gave viability hit class no change; caspase hit class no change; viability robust z-score -0.16; caspase robust z-score 1.93.
With knock-down of COPE, the screen gave viability hit class no change; caspase hit class no change; viability robust z-score -0.01; caspase robust z-score -0.1.
Against NCOR1 the deposit lists viability hit class no change; caspase hit class no change; viability robust z-score 0.68; caspase robust z-score 1.06.
Against INSC, the values are viability hit class no change; caspase hit class no change; viability robust z-score -0.02; caspase robust z-score 0.17.
After knock-down of AKR1B10, the record shows viability hit class no change; caspase hit class no change; viability robust z-score -0.3; caspase robust z-score -1.05.
Depletion of ATP5IF1 gave: viability hit class no change; caspase hit class no change; viability robust z-score -1.19; caspase robust z-score 0.73.
With knock-down of THOC6, the screen gave viability hit class no change; caspase hit class no change; viability robust z-score 0.26; caspase robust z-score -0.19.
With knock-down of BICC1 the results were viability hit class no change; caspase hit class no change; viability robust z-score -0.12; caspase robust z-score 1.16.
B4GALNT1 scored viability hit class no change; caspase hit class no change; viability robust z-score -0.26; caspase robust z-score -1.12.
Silencing of PDLIM2 came out at: viability hit class no change; caspase hit class no change; viability robust z-score -0.18; caspase robust z-score -0.43.
Silencing of SPG11 gave: viability hit class no change; caspase hit class no change; viability robust z-score -0.29; caspase robust z-score -0.06.
Silencing of GCM2 came out at: viability hit class no change; caspase hit class no change; viability robust z-score 1.17; caspase robust z-score 0.52.
Against ERVW-1, the values are viability hit class no change; caspase hit class no change; viability robust z-score 0.56; caspase robust z-score -0.45.
Silencing of IL22 resulted in: viability hit class no change; caspase hit class no change; viability robust z-score -0.76; caspase robust z-score 0.31.
Depletion of EFEMP1 resulted in: viability hit class no change; caspase hit class no change; viability robust z-score 0.43; caspase robust z-score -0.92.

2 of these entries, reformatted:
target gene | viability hit class | caspase hit class | viability robust z-score | caspase robust z-score
ATP5IF1 | no change | no change | -1.19 | 0.73
THOC6 | no change | no change | 0.26 | -0.19

The results go on:
With knock-down of STATH, the record shows viability hit class no change; caspase hit class no change; viability robust z-score 0.91; caspase robust z-score -0.22.
With knock-down of ZBED2 the results were viability hit class no change; caspase hit class no change; viability robust z-score -1.36; caspase robust z-score -0.55.
GPR157 showed viability hit class no change; caspase hit class no change; viability robust z-score -0.05; caspase robust z-score 0.72.
Depletion of ECD gave: viability hit class no change; caspase hit class no change; viability robust z-score 0.62; caspase robust z-score -0.04.
For RPS6KA5 the deposit lists viability hit class no change; caspase hit class no change; viability robust z-score -0.88; caspase robust z-score -1.36.
PBX3 gave viability hit class no change; caspase hit class no change; viability robust z-score 1.5; caspase robust z-score -0.44.
For COA1, the values are viability hit class no change; caspase hit class no change; viability robust z-score 1; caspase robust z-score -0.88.
DPPA4 showed viability hit class no change; caspase hit class no change; viability robust z-score 0.73; caspase robust z-score -0.22.
Silencing of DSG2 came out at: viability hit class no change; caspase hit class no change; viability robust z-score -0.25; caspase robust z-score -0.4.
After knock-down of YIPF2 the results were viability hit class no change; caspase hit class no change; viability robust z-score -0.04; caspase robust z-score 0.17.
With knock-down of HECW1, the record shows viability hit class no change; caspase hit class no change; viability robust z-score 0.38; caspase robust z-score -0.7.
For MCTP1, the values are viability hit class no change; caspase hit class no change; viability robust z-score 0.66; caspase robust z-score -0.3.
